# Source: patent US20200390850A1, “PEPTIDES AND USES THEREOF” (LATERAL IP PTY LTD, priority 2018, published 2020)
# “Also recorded” adds a separate entry of the source. Not every detail of the peptide structures is certain; ends, links or a residue may be inferred. Positions of bridges follow the written chain, without caps; N, C: chain ends. Residues, ends and D or L forms follow the SMILES beside them.
# Key:
# [1] = system: dorsal horn neurons from Chung rats; assay: Post-synaptic membrane responses to current injection in dorsal horn neurons; type: cell-based, rat; settings: 10 μM; for inward rectifying potassium (K) conductance: vs vehicle alone (Control)
# Lamina I or II neurones = assay: Whole-cell patch clamp on spinal cord slices with intact dorsal root afferents: evoked post-synaptic currents; type: cell-based, rat
# Description: An in vitro spinal cord slice with intact dorsal root afferents combined with single-cell whole-cell patch clamp electrophysiological recording techniques was used to assess the electrophysiological properties of the peptide having the amino acid sequence of SEQ ID NO:2.
# Spinal cord slices were prepared from chronic nerve constriction models of neuropathic pain (Chung models) and tested against the peptide of SEQ ID NO:2.
# The spinal nerve ligation model (Chung model) was first reported by Kim and Chung (1992; Pain, 50(3):355-63) and involves a single tight ligation of the L5 spinal nerve. […] This model has been used as a “gold standard’ model for assessing the efficacy of novel compounds targeting neuropathic pain.
# Adult male Sprague-Dawley rats, 8-9 weeks old, weighing 220-250 g at the time of surgery, were purchased from Charles River UK Ltd. The animals were housed in groups of 4 in an air-conditioned room on a 12-hour light/dark cycle. Food and water were available ad libitum. They were allowed to acclimatise to the experimental environment for three days by leaving them on a raised metal mesh for at least 40 min. The baseline paw withdrawal threshold (PWT) was examined using a series of graduated von Frey hairs for 3 consecutive days before surgery and re-assessed on the 6th to 8th day after surgery and on the 12th to 14th day after surgery before drug dosing Each rat was anaesthetized with 5% isoflurane mixed with oxygen (2 L per min) followed by an intramuscular (i.m.) injection of ketamine 90 mg/kg plus xylazine 10 mg/kg. The back was shaved and sterilized with povidone-iodine. The animal was placed in a prone position and a para-medial incision was made on the skin covering the L4-6 level. The L5 spinal nerve was carefully isolated and tightly ligated with 6/0 silk suture. The wound was then closed in layers after a complete hemostasis. A single dose of antibiotics (Amoxipen, 15 mg/rat, i.p.) was routinely given for prevention of infection after surgery. […]
# [2] = system: ectopic discharge of DRG-origin; assay: Ectopic discharge of DRG-origin in CCI rats; type: in vivo, rat; settings: 1 mg/kg body weight, i.v., vs vehicle
# [3] = system: rats with CFA-induced inflammation; assay: Paw withdrawal threshold in CFA-induced inflammatory (nociceptive) pain; type: in vivo, rat; settings: 1, 5 and 10 mg/kg body weight PO (all doses tested)
# Description: Briefly, rats were anaesthetized with 3% isoflurane mixed with 97% oxygen. The left paw was injected with 0.05 ml CFA emulsion (F5881, Sigma-Aldrich) in saline (CFA:saline=1:1, vol./vol.). After CFA injection, the animals were returned to their home cages. Regular observations were be carried out to monitor the conditions of the animals after injection.
# [4] = system: ectopic discharge of neuroma-origin; assay: Ectopic discharge of neuroma-origin in CCI rats; type: in vivo, rat; settings: 1 mg/kg body weight, intravenously
# [5] = system: rats with oxaliplatin-induced neuropathy; assay: Paw withdrawal threshold in oxaliplatin-induced neuropathy; type: in vivo, rat; settings: 5 mg/kg body weight PO
# [6] = system: rats with reserpine-induced fibromyalgia; assay: Paw withdrawal threshold in reserpine-induced model of fibromyalgia; type: in vivo, rat; settings: 5 mg/kg body weight PO
# WDR neurons = assay: In vivo recording of WDR neurones in CCI rats: spontaneous activity, wind-up, after-discharge; parameters: species or system rat
# diabetic rats = assay: Paw withdrawal threshold in streptozotocin-induced diabetic neuropathy; type: in vivo, rat; settings: 5 mg/kg body weight PO
# Chung rats = assay: Paw withdrawal threshold in nerve constriction model of neuropathic pain (Chung model); type: in vivo, rat; settings: for paw withdrawal threshold of ipsilateral paw: vs vehicle
# Description: Briefly, adult male Sprague-Dawley rats, 8-9 weeks old, weighing 220-250 g at the time of surgery, were purchased from Charles River UK Ltd.
# The animals were housed in groups of 4 in an air-conditioned room on a 12-hour light/dark cycle. Food and water were available ad libitum. They were allowed to acclimatise to the experimental environment for three days by leaving them on a raised metal mesh for at least 40 min. The baseline paw withdrawal threshold (PWT) was examined using a series of graduated von Frey hairs for 3 consecutive days before surgery and re-assessed on the 6th to 8th day after surgery and on the 12th to 14th day after surgery before drug dosing.
# Each rat was anaesthetized with 5% isoflurane mixed with oxygen (2 L per min) followed by an intramuscular (i.m.) injection of ketamine 90 mg/kg plus xylazine 10 mg/kg. The back was shaved and sterilized with povidone-iodine. The animal was placed in a prone position and a para-medial incision was made on the skin covering the L4-6 level. The L5 spinal nerve was carefully isolated and tightly ligated with 6/0 silk suture. The wound was then closed in layers after a complete hemostasis. A single dose of antibiotics (Amoxipen, 15 mg/rat, i.p.) was routinely given for prevention of infection after surgery. The animals were placed in a temperature-controlled recovery chamber until fully awake before being returned to their home cages.
# The vehicle (1% DMSO in PBS) and LAT8881 (AOD9604, GL449; provided by Lateral Pharma Pty Ltd) was administrated intramuscularly (i.m.) into the leg of the side contralateral to the site of injury. Dosing was carried out by a second experimenter. The rats with validated neuropathic pain state were randomly divided into 5 experimental groups: 1 ml/kg vehicle, 0.1, 0.5, 1 and 5 mg/kg LAT8881.
# Each group had 8 animals. The animals were placed in individual Perspex boxes on a raised metal mesh for at least 40 minutes before the test. Starting from the filament of lowest force (about 1 g), each filament was applied perpendicularly to the centre of the ventral surface of the paw until slightly bent for 6 seconds. If the animal withdrew or lifted the paw upon stimulation, then a hair with force immediately lower than that tested was used. If no response was observed, then a hair with force immediately higher was tested. The lowest amount of force required to induce reliable responses (positive in 3 out of 5 trials) was recorded as the value of PWT.
# The drug test was carried out on the 12th to 14th day after surgery. PWT were assessed before, 1, 2 and 4 hours following drug or vehicle administration. The animals were rested by being returned to their home cages (about 30-60 min) between two neighbouring testing time points. LAT8881 was administered by a single intramuscular injection (IM) in the ipsilateral limb at a dose of about 0.1 mg/kg body weight to about 5 mg/kg body weight.
# LAT9991 was administered by a single intramuscular injection (IM) in the ipsilateral limb at a dose of about 0.1 mg/kg body weight to about 5 mg/kg body weight.
# Gabapentin, as a positive control, obtained from Actavis, UK (Lot No. GJ29), was administered orally at 100 mg/2 ml/kg in normal saline. Dosing was carried out by a second experimenter.
# Briefly, LAT9991F was administered orally at a dose of about 1 mg/kg body weight to about 5 mg/kg body weight.
# Briefly, LAT9991 was administered orally at a dose of about 1 mg/kg body weight, 2 mg/kg body weight and 5 mg/kg body weight.
smiles,measurement,setting,value
"CC[C@H](C)[C@H](NC(=O)[C@H](CCCNC(=N)N)NC(=O)[C@H](CC(C)C)NC(=O)[C@@H](N)Cc1ccc(O)cc1)C(=O)N[C@H](C(=O)N[C@@H](CCC(N)=O)C(=O)N[C@H]1CSSC[C@@H](C(=O)NCC(=O)N[C@@H](Cc2ccccc2)C(=O)O)NC(=O)[C@H](CO)NC(=O)CNC(=O)[C@H](CCC(=O)O)NC(=O)[C@H](C(C)C)NC(=O)[C@H](CO)NC(=O)[C@H](CCCNC(=N)N)NC1=O)C(C)C [LAT8881, YLRIVQCRSVEGSCGF] (H-YLRIVQCRSVEGSCGF-OH; disulfide 7-14; N-terminus and C-terminus assumed)",intersection of the plots of membrane responses to current injection,[1]; absence vs presence of peptide,around −90 mV
same,inward rectifying potassium (K) conductance,[1],activates
same,inward rectifying potassium (K) conductance,[1]; listed as AOD9604,activation
same,time by which effect on post-synaptic current was detectable,Lamina I or II neurones; 10 μM in tissue bath,≤ 8 min
same,effect on post-synaptic current following stimulation of dorsal root afferents,"Lamina I or II neurones; 10 μM in tissue bath, at 25 mins, slices from Chung model rats",almost completely suppressed
same,reversibility of effect on post-synaptic current on washout,"Lamina I or II neurones; 10 μM, washout",at least partially reversible
same,DRG-generated ectopic discharge,[2],suppressed; also recorded: inhibited
same,analgesic effect on CFA-induced nociceptive pain (paw withdrawal threshold),[3],no significant analgesic effect
same,ectopic discharge at the level of the neuroma,[4],not at the level of the neuroma
same,duration of analgesic effect,[5],at least 4 hours
same,time after administration within which paw withdrawal threshold improved,[5],≤ 1 h
same,analgesic effect (paw withdrawal threshold),[5]; oxaliplatin-induced neuropathy,significant analgesic effect
same,duration of analgesic effect,[6],at least 6 hours
same,time after administration within which paw withdrawal threshold improved,[6],≤ 1 h
same,analgesic effect (paw withdrawal threshold),"[6]; reserpine-induced fibromyalgia, vs vehicle",significant analgesic effect
same,after-discharge in spinal cord dorsal horn WDR neurons,WDR neurons,only slightly inhibited
same,spontaneous activity of WDR neurons,WDR neurons; vs vehicle,suppressed; also recorded: inhibited
same,wind-up of WDR neurons,WDR neurons; vs vehicle,suppressed; also recorded: inhibited
same,duration of analgesic effect,diabetic rats,at least 4 hours
same,time after administration within which analgesic effect was evident,diabetic rats,≤ 1 h
same,analgesic effect (paw withdrawal threshold),diabetic rats; STZ-induced diabetic neuropathy,analgesic effect
same,analgesic effect compared with gabapentin at 100 mg/kg body weight orally,Chung rats; 2 mg/kg body weight PO,comparable
same,analgesic effect compared with gabapentin at 100 mg/kg body weight orally,Chung rats; 5 mg/kg body weight PO,comparable
same,effect on the contralateral paw responses,Chung rats; PO,No effect
same,time after administration within which effect on paw withdrawal threshold was observed,Chung rats; PO,≤ 1 h
same,time for which effect on paw withdrawal threshold was maintained,Chung rats; PO,at least 4 hours
same,effect on the contralateral paw,Chung rats; i.m.,no effect
same,time after administration within which effect on paw withdrawal threshold was observed,Chung rats; i.m.,≤ 1 h
same,time for which effect on paw withdrawal threshold was maintained,Chung rats; i.m.,at least 4 hours
same,paw withdrawal threshold of ipsilateral paw,"Chung rats; oral gavage 1, 2 and 5 mg/kg body weight",significant dose-dependent improvement
same,paw withdrawal threshold of ipsilateral paw,"Chung rats; single i.m. injection, about 0.1 to 5 mg/kg body weight",significant dose-dependent improvement
